# Screening data

The results are deposited in PubChem (AID1508623; NCATS, 2021).

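Change in HTT-promoter-driven luminescence in engineered HEK293 reporter cells after a 24 h treatment, measured at one concentration.
Percent change in reporter signal versus vehicle (0%) down to no light (-100%); more negative values mean stronger inhibition of promoter activity.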

Values are in %.
Common to all entries: at 57.5 µM (top of the series).
Only part of the assay is listed here, not a random draw.

O=S(=O)(Nc1ccc(-c2ccc(N3CCCCCC3)nn2)cc1)c1cccc(C(F)(F)F)c1 gave activity change -12.18%.
CC(C)CCNC(=O)c1cnc2sc(N3CCCCC3)nn2c1=O gave activity change -15.53%.
CCOC(=O)c1ccc(N2CCN(c3cccc(OC)c3)CC2)c(NC(=O)Nc2ccc(OCC)cc2)c1 gave activity change -7.804%.
CCc1ccccc1NC(=O)CC(c1ccc(F)cc1)N1Cc2ccccc2C1=O (stereo unspecified) gave activity change -32.8%.
O=C(NCCCc1nc2ccccc2n1Cc1ccccc1F)c1ccco1 gave activity change -37.74%.
COc1ccc(C2c3cc(OC)c(OC)cc3CC(=O)N2c2ccc(C)cc2)cc1 (stereo unspecified) gave activity change -25.42%.
CCCOc1ccc(NC(=O)CC2C(=O)N(c3ccc(F)cc3)C(=O)N2CC(C)C)cc1 (stereo unspecified) gave activity change -37.62%.
O=C1C(=O)N(C2CCN(C(=O)c3ccc(Cl)cc3)CC2)CCN1Cc1ccc(F)cc1 gave activity change -5.101%.
CCOc1ccc(C(C)C)cc1S(=O)(=O)Nc1cccc(-c2ccc(N3CCOCC3)nn2)c1 gave activity change -21.48%.
CCCCN(CC)CCCNC(=O)Nc1sc2nc3n(c(=O)c2c1C)CCC(C)CC3 (stereo unspecified) gave activity change -26.71%.
CC(=O)c1ccc(S(=O)(=O)Nc2ccc(-c3ccc(N4CCCCC4)nn3)cc2)cc1 gave activity change 12.37%.
CCc1nn(-c2ccccc2)c2nc(-c3cccc(OC)c3)c3cc(OC)c(OC)cc3c12 gave activity change -7.757%.
CC(=O)c1ccc(NC(=O)CCc2c(C)nn(-c3ccc(N4CCCCC4)nn3)c2C)cc1 gave activity change -2.988%.
CC1Cc2cc(S(=O)(=O)CCC(=O)Nc3cccc(F)c3)ccc2N1C(=O)C1CC1 (stereo unspecified) gave activity change -35.89%.
CCc1ccccc1NC(=O)c1cc(-c2ccc(OC)cc2)on1 gave activity change -0.3646%.
COc1nc(Oc2ccc(=O)n(-c3ccccc3)n2)nc(N(C)C)n1 gave activity change -15.67%.
CCc1ccc(NC(=O)CC2C(=O)N(c3ccc(Cl)cc3)C(=O)N2Cc2ccco2)cc1 (stereo unspecified) gave activity change -12.27%.
COc1cccc(-c2nc3c(c(C)nn3-c3ccccc3)c3cc(OC)c(OC)cc23)c1 gave activity change -12.63%.
COc1ccccc1CNC(=O)CC(c1ccc(F)cc1)N1Cc2ccccc2C1=O (stereo unspecified) gave activity change -32.94%.
COc1cc2oc(=O)c(CC(=O)NCc3ccc(OC)c(OC)c3)c(C)c2cc1Cl gave activity change -5.539%.
O=C(NCCSCc1ccccc1)C1CCN(S(=O)(=O)Cc2ccccc2)CC1 gave activity change -10.34%.
COc1ccc(NC(=O)CC2C(=O)N(c3ccc(F)cc3)C(=O)N2Cc2ccco2)cc1 (stereo unspecified) gave activity change -27.39%.
CCOc1ccc(CCNC(=O)c2cnc3sc(N4CCC(C)CC4)nn3c2=O)cc1 gave activity change -10.91%.
Cc1ccc2ccc(C(Nc3ccccn3)c3ccccc3)c(O)c2n1 (stereo unspecified) gave activity change -10.76%.
Cc1ccc(-c2nc3ncccc3o2)cc1NC(=O)c1cccc(OCC(C)C)c1 gave activity change -12.43%.
CCc1cccc(C)c1NC(=O)C1CCN(S(=O)(=O)Cc2ccccc2)CC1 gave activity change -27.37%.
Cc1cc(NS(=O)(=O)c2ccc(NC(=O)COc3c(C)ccc(C)c3C)cc2)nc(C)n1 gave activity change -16.47%.
CC(=O)c1cccc(NCc2ccccc2-c2nnc(-c3ccccc3)o2)c1 gave activity change 10.69%.
CCc1ccc(OCC(=O)Nc2ccc(Cl)c(-c3nc4cc(C)cc(C)c4o3)c2)cc1 gave activity change -5.479%.
CSc1cccc(NC(=O)CC(c2ccc(F)cc2)N2Cc3ccccc3C2=O)c1 (stereo unspecified) gave activity change -62.41%.
CCOC(=O)c1c(N)n(-c2cc(C)cc(C)c2)c2nc3ccccc3nc12 gave activity change -10.07%.
COc1ccccc1N1CCN(c2nc3ccc(C)cc3n3nnnc23)CC1 gave activity change -4.351%.
Cc1cc(C)c(S(=O)(=O)Nc2ccc(-c3ccc(N4CCC(C)CC4)nn3)cc2)cc1C gave activity change -7.477%.
Cc1c(Cl)cccc1NC(=O)c1cc(-c2ccc3c(c2)OCO3)on1 gave activity change -6.868%.
CCOc1ccc(CCNC(c2cccc(Cl)c2)c2nnc(-c3ccccc3)o2)cc1OCC (stereo unspecified) gave activity change -50.98%.
CCc1ccccc1OCCSc1nnc(-c2cc(OC)c(OC)c(OC)c2)o1 gave activity change -15.98%.
COc1cccc(-c2cc(C(=O)Nc3ccc(OC)cc3OC)no2)c1 gave activity change -8.999%.
Cc1ccc2nc(NCc3ccccc3)c3nnnn3c2c1 gave activity change 0.0149%.
Cc1oc2ccc(O)c(CN3CCCCC3)c2c1C(=O)Nc1cccc(C(F)(F)F)c1 gave activity change -42.85%.
Cc1ccccc1NC(=O)CSc1nc(-c2ccco2)nc2cc(=O)[nH]n12 gave activity change -15.68%.
Cc1ccc(CCNS(=O)(=O)c2ccc3c(c2)CC(C)N3C(=O)C2CCC2)cc1 (stereo unspecified) gave activity change -33.11%.
COc1cccc(NC(=O)c2c(C(=O)Nc3ccccc3)sc3nc(C)cc(=O)n23)c1 gave activity change -17.08%.
COc1ccc(CCNC(=O)c2cnc3sc(N4CCCCC4)nn3c2=O)cc1OC gave activity change -14.11%.
Cc1ccc(OCCOCCn2c(-c3ccc(Cl)cc3)nc3ccccc3c2=O)cc1 gave activity change -6.311%.
Cc1ccc(C(=O)c2sc(Nc3ccc(F)cc3)nc2N)c(C)c1 gave activity change -40.2%.
CC1CCC(N2CC(=O)N(C3CCCC3)C(c3ccc(Cl)cc3)C2=O)CC1 (stereo unspecified) gave activity change -8.551%.

Repeated from the top, 5 entries:

{"smiles": "O=S(=O)(Nc1ccc(-c2ccc(N3CCCCCC3)nn2)cc1)c1cccc(C(F)(F)F)c1", "activity change (%)": "-12.18"}
{"smiles": "CC(C)CCNC(=O)c1cnc2sc(N3CCCCC3)nn2c1=O", "activity change (%)": "-15.53"}
{"smiles": "CCOC(=O)c1ccc(N2CCN(c3cccc(OC)c3)CC2)c(NC(=O)Nc2ccc(OCC)cc2)c1", "activity change (%)": "-7.804"}
{"smiles": "CCc1ccccc1NC(=O)CC(c1ccc(F)cc1)N1Cc2ccccc2C1=O", "stereo": "stereo unspecified", "activity change (%)": "-32.8"}
{"smiles": "O=C(NCCCc1nc2ccccc2n1Cc1ccccc1F)c1ccco1", "activity change (%)": "-37.74"}